# Assay results as given in article PMC5996148.
# Values joined by “and” are separate entries in the source; they are usually repeats but may differ in a detail not shown here. Identical values can stand only once. This is one part of the list.
# Assays:
# Experiment in all cases: protein microarray (ProtoArray v5.0), streptavidin-Alexa Fluor 647
# Details in all cases: 3'-biotin; 20 mM Tris (pH 7.5), 5 mM MgCl2, 100 mM KCl, 0.1% Tween-20, A/T-rich and random oligonucleotide blockers; temperature not stated; high values mean tight binding
# [1] = system: Ras-related protein Rab-33B (human)
# [2] = system: Ras-related protein Rab-39B (human)
# [3] = system: Ras-related protein Rab-3D (human)
# [4] = system: Ras-related protein Rab-5A (human)
# [5] = system: Ras-related protein Rab-9B (human)
# [6] = system: Ras-related protein Rap-1b (human)
# [7] = system: Receptor expression-enhancing protein 1 (human)
# [8] = system: Receptor expression-enhancing protein 5 (human)
# [9] = system: Regenerating islet-derived protein 3 gamma (human)
# [10] = system: Regucalcin (human)
# [11] = system: Regulator of G-protein signaling 20 (human)
# [12] = system: Repulsive guidance molecule A (human)
# [13] = system: Retinal dehydrogenase 1 (human)
# [14] = system: Retinoid-binding protein 7 (human)
# [15] = system: Retinol-binding protein 1 (human)
# [16] = system: Rho GDP-dissociation inhibitor 3 (human)
# [17] = system: Rho GTPase-activating protein 29 (human)
# [18] = system: Rho GTPase-activating protein SYDE1 (human)
# [19] = system: Rho guanine nucleotide exchange factor 1 (human)
# [20] = system: Riboflavin kinase (human)
sequence,measurement,setting,value
GGGAGGCTGAGGCAGG [G4-1 biotinylated (PQS2)],binding signal,[1],-0.349 z-score
same,binding signal,[2],-0.361 z-score
same,binding signal,[3],-0.347 z-score
same,binding signal,[4],-0.285 z-score
same,binding signal,[5],-0.359 z-score
same,binding signal,[6],-0.331 z-score
same,binding signal,[7],-0.336 z-score
same,binding signal,[8],-0.361 z-score
same,binding signal,[9],-0.357 z-score
same,binding signal,[10],-0.332 z-score
same,binding signal,[11],-0.335 z-score and -0.258 z-score
same,binding signal,[12],-0.325 z-score
same,binding signal,[13],-0.348 z-score
same,binding signal,[14],-0.35 z-score
same,binding signal,[15],-0.326 z-score
same,binding signal,[16],-0.338 z-score
same,binding signal,[17],-0.342 z-score
same,binding signal,[18],-0.289 z-score
same,binding signal,[19],-0.264 z-score and -0.279 z-score
same,binding signal,[20],-0.295 z-score
